# According to PubChem BioAssay AID493014 (National Center for Advancing Translational Sciences (NCATS), 2011):
# This is one part of the list. These are further read-outs of the screen, such as a control signal, another cell line or another target. No call is given for them. Most of these compounds were active or inconclusive in the main read-out, so they are no random draw. Words in brackets tell the shape of the fitted curve; partial curves, single points and poor fits give uncertain potencies.
# Assay: qHTS Assay to Find Inhibitors of Chronic Active B-Cell Receptor Signaling
# Conditions: ABC-DLBCL IkBa-CBG/CBR reporter, luminescence ratio (green luciferase fused to IkBa over red control in TMD8 lymphoma cells), 4 h
# Procedure, shortened: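 Doxycycline induced both beetle luciferases in TMD8 lymphoma cells; IKK-driven degradation limits the IkappaBalpha-fused green signal, while red luminescence normalises for cell number and nonspecific effects. Compounds tested up to 46 uM, 4 hrs.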
# [1] = measured here: CBR red luminescence, cell number
# [2] = measured here: IkBa-CBG green luminescence
Compound,AC50 [1],AC50 [2]
Cc1ccccc1NC(=O)c1ccc2c(c1)OCCO2,"11.6 µM [falling, partial curve, poor fit]",–
Cc1cccc(NN=C2c3ccccc3-c3ccccc32)c1,"0.411 µM [rising, full curve]",–
OCCC1CN(Cc2ccon2)CCN1Cc1ccc(F)c(F)c1 (stereo not given),"12.6 µM [rising, partial curve, poor fit]",–
NC(=O)C1CCN(C(=O)C2CCC(=O)N(CC3CCCCC3)C2)CC1 (stereo not given),"5.01 µM [rising, single point]",–
Cc1csc(NC(=O)c2cc(-c3ccco3)nc3ccccc23)n1,"10.3 µM [falling, partial curve, poor fit]",–
C/C=C/c1ccc(OCCSc2nc(C)cc(=O)[nH]2)c(OC)c1,"3.98 µM [rising, partial curve, poor fit]",–
CCOC(=O)c1sc(NNC(=O)c2ccc(F)cc2)nc1C,"28.2 µM [falling, single point]",–
Fc1ccccc1CSc1nnnn1-c1ccc2c(c1)OCO2,"9.2 µM [rising, partial curve, poor fit]",–
COc1ccccc1N1CCN(C(=O)C(=O)c2c[nH]c3ccccc23)CC1,"3.16 µM [falling, full curve]",–
O=C1c2ccccc2C(=O)c2c(NCCCN(CCO)CCO)cccc21,"35.5 µM [falling, single point]",–
COc1ccc2c(c1)c(CC(=O)NCc1cc([N+](=O)[O-])ccc1O)c(C)n2C(=O)c1ccc(Cl)cc1,"11.2 µM [falling, partial curve, poor fit]",–
COc1ccc(CNC(=O)c2cc(-c3ccccc3OC)on2)cc1,"22.4 µM [falling, partial curve, poor fit]",–
COc1ccc(C(=O)/C=C/N(C)C)cc1OC,"10 µM [rising, partial curve, poor fit]",–
C/C=C/c1ccc(Oc2nnnn2-c2ccc(C(N)=O)cc2)c(OC)c1,"6.51 µM [falling, single point]","6.51 µM [rising, partial curve, poor fit]"
Cn1c(Cl)c(C(=O)Nc2ccc(Cl)cc2)c2ccccc21,"0.398 µM [rising, full curve]",–
Cc1ccc(N(CC(=O)NCc2cccs2)S(=O)(=O)c2cccs2)cc1,"29.1 µM [rising, single point]",–
O=C1C2C3C=CC(C4CC34)C2C(=O)N1c1cc(Cl)ccn1 (stereo not given),"14.1 µM [rising, partial curve, poor fit]",–
CN(C)c1nc(N/N=C/c2ccccc2O)nc(Nc2ccc(F)cc2)n1,"11.2 µM [falling, partial curve, poor fit]","35.5 µM [falling, single point]"

# Quoted at random: 2 compounds from above
Compound,AC50 [1],AC50 [2]
COc1ccc(C(=O)/C=C/N(C)C)cc1OC,"10 µM [rising, partial curve, poor fit]",–
O=C1C2C3C=CC(C4CC34)C2C(=O)N1c1cc(Cl)ccn1 (stereo not given),"14.1 µM [rising, partial curve, poor fit]",–
